# Measured values taken from PubChem BioAssay AID1508600 (Functional Genomics Laboratory (NCATS/FGL), 2020).
# Screen size: about 53,000 sequences; about 3,700 (7%) were called active.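 How the source made its calls: active means gene knockdowns whose robust z-score for IL-1 alpha signal is at least 2 or at most -2, so actives lie on both sides; inactive means the rest.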 The list shows a part of the results.
# Assay: Components of the Cytosolic LPS Sensing Pathway: Gene Identification via Genome-wide siRNA Screen;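 further: robust z of the log signal after scaling to non-targeting control siRNA wells of the plate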
# Details: RAW264.7 macrophages, IL-1a HTRF, actives lie on both sides, screened at 100 nM (by protocol), cells primed 5 h with Pam3CSK4 first
# How it was run: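 RAW264.7 mouse macrophages reverse-transfected with single siRNAs (100 nM final) for 48h, primed with Pam3CSK4 for 5 hours, then transfected with LipidA for 24 hour. Supernatant IL-1a read by HTRF; values normalized to negative-control median, log-transformed robust z-scores.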
row,Sequence,z-score
1,GCCAGAGUCAUCUACUUUUTT against Tmco4,inactive: -0.844
2,GCAUUAUCAACCGGAUUGATT against Gipc3,inactive: -0.0129
3,GCUUGAAUGGAGCGAAUCGTT against Chat,active: 4.86
4,GGGACCAGAACAAGGUAGUTT against Olfr488,inactive: 0.169
5,CGUGGUAUGGUAAUGAUACTT against Scn4a,inactive: 1.03
6,GGCGAAAGUAAGACAAAGUTT against Ric8a,inactive: 0.708
7,GCUUUAUCGCAGAAAAGGUTT against Nova2,inactive: 0.246
8,CCCUCAGAUGAUCUGUGCCTT against Prss50,inactive: -1.59
9,GGCUUUUAGCCAGAAAGAATT against Zfp260,inactive: 0.667
10,GGUCAACUUUCUACAAAAGTT against Cep112,inactive: -1.37
11,CGAGAUUCUGCCUUUUCAGTT against Tfcp2,inactive: 1.84
12,GCUUCAGCUCUGAUUAACGTT against Alox8,inactive: -0.233
13,CCUUAUAUCUUGGUAUACGTT against Bmp3,inactive: -0.269
14,GCAGAUUGAGCCUGUCAAUTT against Ddx39a,inactive: -0.991
15,GGAUUGAGGGUCAAAUAACTT against Fkbp8,inactive: 0.289
16,GGAUAAUACAUCCCAAAACTT against Prkar2b,inactive: -0.607
17,CGAUCUGACAACUGAUAAGTT against Rad17,inactive: 0.729
18,GGGAGAACAGCGACAAACATT against Cbfb,inactive: 1.82
19,CCUUAACUGGCACAAUUGCTT against Igha,inactive: 0.72
20,CCCUCAAAACCUAUGCCUUTT against Ugt1a2,inactive: 0.715
21,GCAACCUGUCAUUUUGUGATT against Olfr1134,inactive: -1.74
22,GCACAAGGACACGGAAUACTT against Npr3,inactive: -1.28

row,Sequence,z-score
1,GGAAGUUUCUGAGACUGUATT against Epx,inactive: -0.442
2,GCCUUGUUACAAAUAGUCGTT against Tcf12,inactive: 0.266
3,GGGAAGAAAAAGAGCAUAUTT against Dis3l2,inactive: 1.4
4,GGAACACAGAGGUAAAAGGTT against Olfr446,active: -2.66
5,GGUUGUUCUUGUCAGUAUUTT against Serpinb6c,inactive: 1.67
6,GGUGUGACAUUGACCAUAGTT against Stil,inactive: -0.0547
7,CCUGAUCUCUUGCUACACCTT against Trpm3,inactive: -0.0238
8,CGGAUAACAAAAGUAGCAATT against Trp53rka,inactive: 0.276
9,GGCUAAGAACUCUAAGAAATT against Palb2,inactive: -0.269
10,GCGCAUUGUGUUCUGGUCUTT against Zswim4,inactive: -1.55
11,GGAGGAUUAGAACGGACCUTT against Nop56,inactive: 0.588
12,GUAAAUACACCCAAACUGATT against Olfr1281,inactive: -1.1
13,GCACAUCUCAUGAAGGAGGTT against Ppp3ca,inactive: -1.77
14,GGGUUUGUGGCUUCUUUUCTT against Ucp1,inactive: 0.849
15,GGGUAACUGGUUUGUAUGATT against Gm4814,inactive: 1.34
16,CCCGCUGAGAUACUCUGUATT against Olfr1395,inactive: -1.12
17,GCCAUUUAUUCGUCUCUUCTT against Tcaf1,inactive: 0.331
18,GGUGGAGAUCCGAAAGCAUTT against Ltk,inactive: 0.597
19,GCGAAUCUCCUCCUAGUGATT against Arhgap28,inactive: -0.0218
20,GGAAAGCAUCUGCAUUAAATT against Mrpl18,inactive: -0.466
21,GCCAUUAGUGUGGAGUACUTT against Mrgprb8,inactive: 0.294
22,GGACCAUAAAGUGUUACUATT against Tnrc6b,inactive: 0.526

row,Sequence,z-score
1,CGCAUCAUCAAUGAUGACCTT against Crmp1,inactive: -1.32
2,GGAUAGAGAUGGUUGUCCATT against Phf5a,inactive: -0.79
3,CCUUACCGCCUUAAACUGATT against Mylip,inactive: 0.584
4,GGUGAUACGUAUUUUUUAGTT against Pan3,inactive: -1.09
5,GCCUGAACUUUGACAGAACTT against Cxcr3,inactive: 0.538
6,GGGUUUCUUCAUAACUCUUTT against Rasal2,inactive: 0.92
7,GGACAACUCGAGUCUUAAATT against Poln,inactive: 1
8,GGUUUAACAACUUACUUUCTT against Dmgdh,inactive: -0.26
9,GACGCAGAAAUGGUUUAAGTT against Hopx,inactive: 0.213
10,GGGAAAAACACCAUUUCCUTT against Olfr275,inactive: 0.619
11,GCAUUGGGUUUAUCAGCAUTT against Pimreg,inactive: 0.284
12,GGAAGAGAAGAUUUUGGAUTT against Il1f9,inactive: 0.805
13,GGGAUGUGUCUAAUGACUCTT against Zfp677,inactive: 0.0909
14,GGAAAAUGUGAAACAGCUATT against Dhx40,inactive: -0.873
15,GGAAGGAAAUAAAAAGGGATT against Pcdhb20,inactive: 0.359
16,GGUCAGAAAAAAGUGUAUUTT against Dennd6a,inactive: 0.523
17,UAUUUAUCCACUACUGGAATT against Olfr969,inactive: 0.0334
18,GGAGGUCUUUUCAGAAUAATT against Timmdc1,inactive: 1.68
19,GCAGGAACAGCCUAAGAGATT against Tdp1,inactive: 0.358
20,GGGACCCUUCUACAAAAACTT against Pias3,inactive: 0.283
21,GCAACUUAAAGGCAUCUCCTT against Sntn,inactive: 1.53
22,GGCAUUCAAGGAUAUGCUGTT against Xpr1,inactive: -1.1

row,Sequence,z-score
1,GAUCAAAGCGGCGUACUACTT against Dnajc30,inactive: 0.738
2,GCUUGUCCAAGUUAGGCGATT against Calm4,inactive: 0.294
3,GGCCAUACGCAAGCUCAAGTT against Rtl5,active: -2.96
4,GUGUCCAGUCCUAAAACGATT against Trib3,inactive: 1.66
5,GGCUUUAAGCUGGUGAUGGTT against Hmox1,inactive: -0.225
6,CCCAGAAAUAAUAGGGUCGTT against N4bp2l2,inactive: 0.908
7,GGUCUUCAGAUAAUCUUCCTT against Brinp1,inactive: 1.91
8,GGACCGGUGUAAGCUUCGATT against Hinfp,active: 2.05
9,GGAGAUUAACAAGUGGUGGTT against Parl,inactive: -0.426
10,GGUGGUUGCCUUUAUGAAGTT against Tmem159,inactive: 0.664
11,GGCUCCAACCAACAUUGUUTT against Rpa2,inactive: -0.363
12,CGUGAGCACAAAAAUAUUGTT against Fchsd2,inactive: -0.251
13,GGGAAGAACAAAUGGUUUUTT against Rpl27,inactive: -0.126
14,CCAAGUCUGAUCUUUUGUATT against Clec16a,inactive: -0.153
15,GCAUUUGAAAUGCUACAGCTT against Rhoq,inactive: 0.206
16,CCGUAUAUUGACCUAAUGGTT against Ppp2ca,inactive: -0.0183
17,GCUGCUCGUUAAAGCCGGATT against Ankrd6,active: 2.92
18,GCUGCAUGUUACCUACUUGTT against Pold3,inactive: 1.34
19,GCAGUGAAUGGACUCGAGATT against Pax1,inactive: -0.509
20,GCUUAUGAGUUCAGUUGUGTT against Olfr143,inactive: 0.00489
21,GUGUCAUCAUGCCCAAAAUTT against Olfr957,inactive: 0.0653
22,GGCCAGACCCGAACUUUGATT against Rnf2,inactive: -0.306

row,Sequence,z-score
1,GGCUCGUUUAAACAACAUATT against Tmem106b,inactive: -0.442
2,GGCAACUCUCAAUUGCACATT against Olfr1325,inactive: 1.45
3,GCUCAUAAGUUUCUAAGGATT against Rab22a,inactive: -0.975
4,CCUAACAACCGCUCUUGUGTT against Efemp2,inactive: -1.75
5,CGAAGGUCUGUUCGAGAACTT against Morn4,inactive: 0.668
6,GGAUGAGGCCAUCCUCAAGTT against Rps6ka1,inactive: -0.64
7,GGCCGACAAGCGAUCAAAATT against Arhgap44,inactive: 0.424
8,GGAUCUGAAAUGAACCAGCTT against Rpl38,inactive: 1.91
9,CGGUGUUCGCUUUUCAGAATT against Thap3,inactive: 0.364
10,UUGUUGCCAAGUAUCUGUCTT against Ugt1a10,inactive: -0.332
11,GCUUCAGGAGCUCUACUGUTT against Catsper3,inactive: -0.736
12,GGCCGGAGCAUCACAAUUUTT against Vamp1,inactive: 1.68
13,GGGAUUUCCUUCAUCAUUATT against Gtf2i,inactive: -0.151
14,GGAUAUAACUGCUAUGGUUTT against Rhebl1,inactive: -0.241
15,GCCAAGGAGAUCAUAAAAUTT against Klk14,inactive: -0.345
16,CCCAAGGAGUACAAUAAAATT against Fam122c,inactive: 0.594
17,CCCUUCUGUCUGUCUGAAGTT against Olfr247,inactive: -0.42
18,GCCACUGUACCUUAUUGGUTT against Msrb1,inactive: 0.331
19,GGUAAAGUCAAAAUCACCATT against Pibf1,inactive: 0.924

# Reformatted: results already given.
row	Sequence	z-score
11	GGAGGAUUAGAACGGACCUTT against Nop56	inactive: 0.588
12	GUAAAUACACCCAAACUGATT against Olfr1281	inactive: -1.1
13	GCACAUCUCAUGAAGGAGGTT against Ppp3ca	inactive: -1.77
14	GGGUUUGUGGCUUCUUUUCTT against Ucp1	inactive: 0.849
15	GGGUAACUGGUUUGUAUGATT against Gm4814	inactive: 1.34
16	CCCGCUGAGAUACUCUGUATT against Olfr1395	inactive: -1.12
17	GCCAUUUAUUCGUCUCUUCTT against Tcaf1	inactive: 0.331
